The text below walks through data of paper PMC5348399.

These are yes or no findings as the source states them, for the method shown. Binding seen in cells or lysates may run through a third protein. Binding calls can cover weak binding; strength is not graded here. Where a sequence is shown, tags or fusion partners need not be part of it.

In the assay the target is T1, GST-PC-1 (human) (UniProt P55327).
T1 sequence: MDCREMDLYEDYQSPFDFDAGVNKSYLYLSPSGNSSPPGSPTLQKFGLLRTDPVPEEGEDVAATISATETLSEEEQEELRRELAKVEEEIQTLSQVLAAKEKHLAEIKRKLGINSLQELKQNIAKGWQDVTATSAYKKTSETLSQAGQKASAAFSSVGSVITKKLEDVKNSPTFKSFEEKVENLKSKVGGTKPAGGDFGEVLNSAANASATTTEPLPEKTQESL
In words: pull-down; GST-PC-1 or GST-CHIP on glutathione beads incubated with lysates of transfected HEK293 cells at 4°C for 4-6 h, Western blot; AR with GST-CHIP tested with and without co-expressed HA-PC-1; only the target purified. Background: Immunoblotting shows a protein as a band on a membrane.

With “Myc-AR-484-651 (human) (domain or fragment)”, the binding result was “binds”.
